Results: the supplement of paper PMC10849652
This is one part of the list.

Amino acid sequences for entries named in this document (tags omitted). A change or cut given only in a name is not applied to a line headed by its entry.
UniProt Q9H3Z4: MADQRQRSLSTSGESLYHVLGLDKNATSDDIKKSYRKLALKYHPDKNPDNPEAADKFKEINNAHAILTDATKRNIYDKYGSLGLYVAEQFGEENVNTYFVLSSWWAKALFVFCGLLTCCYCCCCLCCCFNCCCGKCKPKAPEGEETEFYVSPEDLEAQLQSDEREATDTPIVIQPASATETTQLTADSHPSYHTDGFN
UniProt Q96DA6: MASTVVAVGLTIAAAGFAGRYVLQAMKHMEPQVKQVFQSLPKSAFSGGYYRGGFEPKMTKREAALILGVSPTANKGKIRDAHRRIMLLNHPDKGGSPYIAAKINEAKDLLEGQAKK
UniProt O00429, whole entry, looked up: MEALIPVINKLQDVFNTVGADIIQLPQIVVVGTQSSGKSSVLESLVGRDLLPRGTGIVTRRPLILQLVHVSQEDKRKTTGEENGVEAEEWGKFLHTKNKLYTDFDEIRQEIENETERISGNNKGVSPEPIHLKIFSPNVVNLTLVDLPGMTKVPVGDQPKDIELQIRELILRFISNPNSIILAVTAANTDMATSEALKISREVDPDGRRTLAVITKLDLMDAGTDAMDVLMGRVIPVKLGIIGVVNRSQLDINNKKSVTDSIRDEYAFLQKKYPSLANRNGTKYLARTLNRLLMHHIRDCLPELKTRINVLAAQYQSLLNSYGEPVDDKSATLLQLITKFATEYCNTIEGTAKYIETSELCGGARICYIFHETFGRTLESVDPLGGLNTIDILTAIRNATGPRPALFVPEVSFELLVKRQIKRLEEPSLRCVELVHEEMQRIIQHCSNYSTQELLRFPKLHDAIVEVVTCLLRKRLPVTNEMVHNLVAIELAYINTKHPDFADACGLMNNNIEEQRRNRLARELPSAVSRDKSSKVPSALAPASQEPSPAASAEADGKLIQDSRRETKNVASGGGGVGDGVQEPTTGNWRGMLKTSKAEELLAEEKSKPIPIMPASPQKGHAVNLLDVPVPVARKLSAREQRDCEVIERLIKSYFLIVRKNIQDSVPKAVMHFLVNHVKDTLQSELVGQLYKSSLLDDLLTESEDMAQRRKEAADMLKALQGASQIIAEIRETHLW
UniProt O75165, whole entry, looked up: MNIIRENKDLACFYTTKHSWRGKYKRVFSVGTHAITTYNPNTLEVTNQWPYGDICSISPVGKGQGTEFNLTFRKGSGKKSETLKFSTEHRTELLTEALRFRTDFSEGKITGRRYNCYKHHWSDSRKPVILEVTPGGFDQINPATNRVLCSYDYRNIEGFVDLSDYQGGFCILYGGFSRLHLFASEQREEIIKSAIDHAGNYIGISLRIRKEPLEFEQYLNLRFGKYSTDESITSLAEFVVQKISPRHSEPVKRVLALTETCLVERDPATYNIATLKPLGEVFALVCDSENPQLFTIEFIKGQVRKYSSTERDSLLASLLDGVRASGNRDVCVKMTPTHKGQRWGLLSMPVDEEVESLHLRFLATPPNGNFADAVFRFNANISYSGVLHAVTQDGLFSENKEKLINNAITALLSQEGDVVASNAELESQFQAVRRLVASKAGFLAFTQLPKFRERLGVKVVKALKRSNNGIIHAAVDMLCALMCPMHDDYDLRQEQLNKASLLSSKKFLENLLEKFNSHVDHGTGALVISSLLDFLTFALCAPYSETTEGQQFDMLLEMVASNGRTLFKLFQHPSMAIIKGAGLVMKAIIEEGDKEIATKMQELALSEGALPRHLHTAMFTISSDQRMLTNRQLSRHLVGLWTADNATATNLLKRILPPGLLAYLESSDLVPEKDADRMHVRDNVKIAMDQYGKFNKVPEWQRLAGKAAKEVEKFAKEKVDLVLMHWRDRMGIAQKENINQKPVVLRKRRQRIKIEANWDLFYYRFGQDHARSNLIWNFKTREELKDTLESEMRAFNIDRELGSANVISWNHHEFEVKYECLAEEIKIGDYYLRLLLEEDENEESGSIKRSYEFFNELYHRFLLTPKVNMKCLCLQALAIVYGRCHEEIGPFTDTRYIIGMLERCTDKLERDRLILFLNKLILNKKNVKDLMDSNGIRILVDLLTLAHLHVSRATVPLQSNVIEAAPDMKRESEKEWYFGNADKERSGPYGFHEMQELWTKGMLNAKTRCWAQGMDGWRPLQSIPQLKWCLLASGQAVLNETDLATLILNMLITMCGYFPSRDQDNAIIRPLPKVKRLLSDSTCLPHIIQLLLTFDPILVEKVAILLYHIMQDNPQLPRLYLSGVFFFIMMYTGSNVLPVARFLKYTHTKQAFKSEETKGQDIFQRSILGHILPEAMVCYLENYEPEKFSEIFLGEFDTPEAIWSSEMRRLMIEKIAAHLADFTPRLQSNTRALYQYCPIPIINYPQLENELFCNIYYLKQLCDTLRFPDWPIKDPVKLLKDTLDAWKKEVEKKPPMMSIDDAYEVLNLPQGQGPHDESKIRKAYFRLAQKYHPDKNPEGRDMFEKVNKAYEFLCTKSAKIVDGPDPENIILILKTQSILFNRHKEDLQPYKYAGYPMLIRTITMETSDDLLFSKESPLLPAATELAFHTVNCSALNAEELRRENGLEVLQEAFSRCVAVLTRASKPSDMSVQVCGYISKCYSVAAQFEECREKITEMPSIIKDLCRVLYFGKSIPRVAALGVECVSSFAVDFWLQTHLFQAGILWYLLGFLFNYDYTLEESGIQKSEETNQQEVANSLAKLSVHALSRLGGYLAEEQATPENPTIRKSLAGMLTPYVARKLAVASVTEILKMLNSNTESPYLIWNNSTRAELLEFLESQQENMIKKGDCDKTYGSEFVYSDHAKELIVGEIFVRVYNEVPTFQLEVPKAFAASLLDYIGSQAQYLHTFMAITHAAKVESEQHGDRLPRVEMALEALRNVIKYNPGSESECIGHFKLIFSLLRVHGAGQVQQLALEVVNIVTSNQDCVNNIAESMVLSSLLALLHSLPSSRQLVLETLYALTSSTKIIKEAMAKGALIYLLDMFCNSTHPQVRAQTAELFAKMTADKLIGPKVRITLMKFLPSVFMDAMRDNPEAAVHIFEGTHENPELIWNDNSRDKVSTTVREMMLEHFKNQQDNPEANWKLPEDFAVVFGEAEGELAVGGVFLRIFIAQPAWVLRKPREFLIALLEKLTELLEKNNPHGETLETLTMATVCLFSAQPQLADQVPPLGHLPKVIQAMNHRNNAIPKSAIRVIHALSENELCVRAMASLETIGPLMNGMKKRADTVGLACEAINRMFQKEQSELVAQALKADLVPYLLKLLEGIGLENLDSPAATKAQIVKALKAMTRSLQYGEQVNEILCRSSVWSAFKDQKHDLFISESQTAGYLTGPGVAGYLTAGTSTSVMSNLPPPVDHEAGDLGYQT
UniProt Q6P3W2: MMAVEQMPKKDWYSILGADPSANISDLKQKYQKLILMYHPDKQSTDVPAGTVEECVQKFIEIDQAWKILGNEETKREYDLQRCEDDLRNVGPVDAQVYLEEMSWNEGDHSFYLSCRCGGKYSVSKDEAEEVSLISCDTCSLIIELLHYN
UniProt Q9NVR5: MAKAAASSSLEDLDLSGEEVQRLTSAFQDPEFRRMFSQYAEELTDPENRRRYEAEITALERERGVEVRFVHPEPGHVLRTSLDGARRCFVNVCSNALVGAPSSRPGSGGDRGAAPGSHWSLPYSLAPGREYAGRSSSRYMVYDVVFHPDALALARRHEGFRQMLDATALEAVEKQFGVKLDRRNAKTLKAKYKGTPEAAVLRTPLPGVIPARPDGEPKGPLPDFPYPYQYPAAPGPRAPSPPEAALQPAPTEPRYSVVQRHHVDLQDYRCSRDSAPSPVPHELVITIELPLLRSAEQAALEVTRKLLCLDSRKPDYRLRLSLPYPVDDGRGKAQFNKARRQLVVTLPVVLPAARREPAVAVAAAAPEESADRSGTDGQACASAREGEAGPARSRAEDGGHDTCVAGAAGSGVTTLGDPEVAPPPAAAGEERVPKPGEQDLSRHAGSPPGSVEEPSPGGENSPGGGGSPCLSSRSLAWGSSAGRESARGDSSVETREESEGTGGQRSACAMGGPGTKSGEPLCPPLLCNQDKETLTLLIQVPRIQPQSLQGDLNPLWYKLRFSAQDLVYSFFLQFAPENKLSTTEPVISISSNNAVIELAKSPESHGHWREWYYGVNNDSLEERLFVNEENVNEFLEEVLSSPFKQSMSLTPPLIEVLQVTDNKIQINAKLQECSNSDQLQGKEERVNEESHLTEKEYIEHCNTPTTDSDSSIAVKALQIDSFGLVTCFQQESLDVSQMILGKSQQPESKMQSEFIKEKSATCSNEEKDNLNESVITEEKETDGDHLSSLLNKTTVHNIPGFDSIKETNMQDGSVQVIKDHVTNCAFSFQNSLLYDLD
UniProt P49366: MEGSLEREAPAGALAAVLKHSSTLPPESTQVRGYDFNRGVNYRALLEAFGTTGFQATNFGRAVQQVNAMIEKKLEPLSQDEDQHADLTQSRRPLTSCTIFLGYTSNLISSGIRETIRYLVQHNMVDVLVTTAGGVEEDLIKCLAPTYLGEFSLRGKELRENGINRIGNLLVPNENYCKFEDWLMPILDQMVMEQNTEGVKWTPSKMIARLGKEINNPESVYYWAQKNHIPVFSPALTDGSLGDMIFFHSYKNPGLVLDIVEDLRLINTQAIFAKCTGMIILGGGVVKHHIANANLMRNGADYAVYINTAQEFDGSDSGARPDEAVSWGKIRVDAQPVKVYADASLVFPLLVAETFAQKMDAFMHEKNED
UniProt Q92620: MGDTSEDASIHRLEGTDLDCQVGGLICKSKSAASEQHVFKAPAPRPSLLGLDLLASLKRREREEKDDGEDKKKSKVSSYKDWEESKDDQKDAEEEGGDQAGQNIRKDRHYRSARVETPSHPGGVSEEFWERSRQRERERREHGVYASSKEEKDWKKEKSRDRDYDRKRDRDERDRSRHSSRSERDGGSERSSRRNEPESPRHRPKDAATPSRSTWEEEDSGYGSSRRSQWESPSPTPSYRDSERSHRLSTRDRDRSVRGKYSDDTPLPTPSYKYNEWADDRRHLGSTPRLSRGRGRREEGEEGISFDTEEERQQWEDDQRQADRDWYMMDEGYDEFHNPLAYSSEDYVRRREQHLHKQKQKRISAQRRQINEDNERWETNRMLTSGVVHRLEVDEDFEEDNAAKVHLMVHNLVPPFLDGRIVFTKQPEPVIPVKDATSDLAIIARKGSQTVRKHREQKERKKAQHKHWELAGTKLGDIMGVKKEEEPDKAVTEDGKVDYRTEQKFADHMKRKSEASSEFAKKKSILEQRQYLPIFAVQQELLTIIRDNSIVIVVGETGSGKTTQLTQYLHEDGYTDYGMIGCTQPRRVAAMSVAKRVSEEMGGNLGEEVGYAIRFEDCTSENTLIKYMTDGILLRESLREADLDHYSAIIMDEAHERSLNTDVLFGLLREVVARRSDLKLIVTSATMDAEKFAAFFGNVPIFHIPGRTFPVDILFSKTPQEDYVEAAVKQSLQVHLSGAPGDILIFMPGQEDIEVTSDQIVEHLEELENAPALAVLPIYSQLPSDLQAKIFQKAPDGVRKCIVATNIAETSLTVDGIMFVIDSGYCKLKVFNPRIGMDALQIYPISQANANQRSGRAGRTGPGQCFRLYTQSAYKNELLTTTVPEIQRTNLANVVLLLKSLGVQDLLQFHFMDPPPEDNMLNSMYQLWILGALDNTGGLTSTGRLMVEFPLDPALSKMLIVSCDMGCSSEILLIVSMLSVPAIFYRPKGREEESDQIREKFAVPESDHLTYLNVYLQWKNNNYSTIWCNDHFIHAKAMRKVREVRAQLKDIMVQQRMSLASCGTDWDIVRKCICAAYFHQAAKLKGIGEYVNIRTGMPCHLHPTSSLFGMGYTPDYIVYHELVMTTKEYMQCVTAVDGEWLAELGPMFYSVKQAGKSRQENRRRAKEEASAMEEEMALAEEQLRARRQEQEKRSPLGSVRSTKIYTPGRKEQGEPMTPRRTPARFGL
UniProt Q9NR28: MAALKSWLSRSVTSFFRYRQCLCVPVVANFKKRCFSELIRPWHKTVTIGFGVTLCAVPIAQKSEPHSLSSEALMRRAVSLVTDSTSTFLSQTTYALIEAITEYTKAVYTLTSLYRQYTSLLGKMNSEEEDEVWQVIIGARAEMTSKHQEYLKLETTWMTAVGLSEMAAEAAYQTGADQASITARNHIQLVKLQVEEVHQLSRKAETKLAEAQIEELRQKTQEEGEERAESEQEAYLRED
UniProt Q99704: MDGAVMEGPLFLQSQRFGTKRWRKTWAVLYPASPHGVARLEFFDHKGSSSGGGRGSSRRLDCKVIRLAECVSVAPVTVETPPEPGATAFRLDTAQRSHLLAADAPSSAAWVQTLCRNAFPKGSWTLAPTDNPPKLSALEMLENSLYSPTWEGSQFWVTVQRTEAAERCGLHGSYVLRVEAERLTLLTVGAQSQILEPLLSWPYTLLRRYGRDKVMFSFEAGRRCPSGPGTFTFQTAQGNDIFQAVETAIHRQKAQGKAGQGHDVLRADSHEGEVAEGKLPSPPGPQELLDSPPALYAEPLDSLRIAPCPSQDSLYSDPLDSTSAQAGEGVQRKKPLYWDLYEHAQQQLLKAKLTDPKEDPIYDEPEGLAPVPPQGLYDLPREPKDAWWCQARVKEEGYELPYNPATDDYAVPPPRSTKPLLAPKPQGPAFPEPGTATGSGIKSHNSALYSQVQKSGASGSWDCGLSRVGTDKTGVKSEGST

Tests used:
Assay in all cases: log2 fold change, soluble protein after heating vs DMSO (PISA); higher = thermal stabilisation; K562 lysate, 10 uM; active = over 0.2 and 3.5 SD of the protein, either way, in both replicates (recomputed)
alvocidib = compound: CN1CC[C@H](c2c(O)cc(O)c3c(=O)cc(-c4ccccc4Cl)oc23)[C@H](O)C1 [alvocidib]
Procedure, shortened: (§1)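 Log-two fold change in thermal stability relative to solvent controls is reported from duplicates. For each sample, crude K562 extract from dounce-homogenised pellets in PBS pH 7.4 with 1 mM MgCl2, at 1 mg/mL protein, was treated with 10 μM compound for 30 min. Aliquots heated for 3 min across 48°C-58°C were pooled, brought to 0.5% NP-40 at 4°C and cleared at 21,000xg for 90 min. The supernatant was quantified by TMTpro 16plex LC-MS/MS with channel sums equalised.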

Tubastatin A = compound: CN1CCc2c(c3ccccc3n2Cc2ccc(C(=O)NO)cc2)C1 [Tubastatin A]
Procedure, shortened: as §1

[1] = compound: CNC(=O)C1=CC=CC=C1NC2=NC(=NC=C2Cl)NC3=C(C=C(C=C3)N4CCOCC4)OC
Procedure, shortened: as §1

defactinib = compound: CNC(=O)c1ccc(Nc2ncc(C(F)(F)F)c(NCc3nccnc3N(C)S(C)(=O)=O)n2)cc1 [defactinib]
Procedure, shortened: as §1

[2] = compound: CNc1nc(-c2ccc3c(N)n[nH]c3c2)cc(N2C[C@@H](C(=O)NC3CCCCC3)CC[C@H]2C)n1
Procedure, shortened: as §1

encorafenib = compound: COC(=O)N[C@@H](C)CNc1nccc(-c2cn(C(C)C)nc2-c2cc(Cl)cc(NS(C)(=O)=O)c2F)n1 [encorafenib]
Procedure, shortened: as §1

[3] = compound: COC(=O)[C@H](CCSC)NC(=O)C1=C(C=C(C=C1)NC[C@H](CS)N)C2=CC=CC=C2
Procedure, shortened: as §1

alisertib = compound: COc1cc(Nc2ncc3c(n2)-c2ccc(Cl)cc2C(c2c(F)cccc2OC)=NC3)ccc1C(=O)O [alisertib]
Procedure, shortened: as §1

[4] = compound: COc1cc2nc(-c3cc(F)ccc3O)nc(N[C@@H]3CNC[C@H]3C(C)(C)O)c2cc1OC
Procedure, shortened: as §1

gefitinib = compound: COc1cc2ncnc(Nc3ccc(F)c(Cl)c3)c2cc1OCCCN1CCOCC1 [gefitinib]
Procedure, shortened: as §1

Row | Target | log2 fold change (alvocidib) | log2 fold change (Tubastatin A) | log2 fold change [1] | log2 fold change (defactinib) | log2 fold change [2] | log2 fold change (encorafenib) | log2 fold change [3] | log2 fold change (alisertib) | log2 fold change [4] | log2 fold change (gefitinib)
1 | DNAJC5 (UniProt Q9H3Z4) | inactive: -0.216 | inactive: 0.062 | inactive: 0.019 | inactive: 0.011 | inactive: 0.054 | inactive: 0.016 | inactive: -0.057 | inactive: -0.119 | inactive: 0.019 | inactive: -0.039
2 | DNAJC19 (UniProt Q96DA6) | inactive: -0.007 | inactive: 0.04 | inactive: -0.023 | inactive: 0.017 | inactive: 0.04 | inactive: -0.035 | inactive: 0.016 | inactive: 0.033 | inactive: -0.111 | inactive: -0.065
3 | DMXL2 isoform 3 (UniProt Q8TDJ6) | inactive: 0.035 | inactive: -0.017 | inactive: 0.003 | inactive: 0.044 | inactive: -0.031 | inactive: 0.061 | inactive: 0.05 | inactive: -0.006 | inactive: 0 | inactive: 0.023
4 | DNM1L isoform 6 (UniProt O00429) | inactive: 0.01 | inactive: 0.031 | inactive: 0.018 | inactive: -0.008 | inactive: 0.002 | inactive: 0.008 | inactive: 0.035 | inactive: 0.006 | inactive: 0.01 | inactive: -0.021
5 | DNAJC13 (UniProt O75165) | inactive: -0.025 | inactive: 0.082 | inactive: 0.004 | inactive: 0.02 | inactive: -0.014 | inactive: 0 | inactive: 0.03 | inactive: -0.017 | inactive: 0.033 | inactive: 0.003
6 | DNAJC24 (UniProt Q6P3W2) | inactive: 0.079 | inactive: 0.001 | inactive: -0.017 | inactive: 0.009 | inactive: -0.088 | inactive: 0.037 | inactive: -0.027 | inactive: -0.017 | inactive: -0.006 | inactive: -0.038
7 | DOCK11 (UniProt Q5JSL3) | inactive: -0.02 | inactive: -0.044 | inactive: 0.011 | inactive: 0.013 | inactive: -0.024 | inactive: 0.02 | inactive: -0.035 | inactive: 0.017 | inactive: 0.007 | inactive: -0.009
8 | DNAJB4 (UniProt Q9UDY4) | inactive: -0.008 | inactive: -0.073 | inactive: 0.033 | inactive: 0.006 | inactive: -0.036 | inactive: 0.109 | inactive: -0.002 | inactive: 0.035 | inactive: -0.042 | inactive: 0.009
9 | DLG1 isoform 2 (UniProt Q12959) | inactive: 0.039 | inactive: 0.035 | inactive: -0.013 | inactive: -0.026 | inactive: -0.002 | inactive: 0.008 | inactive: 0.034 | inactive: 0.045 | inactive: 0.006 | inactive: -0.015
10 | DHCR7 (UniProt Q9UBM7) | inactive: -0.008 | inactive: -0.038 | inactive: -0.008 | inactive: 0.016 | inactive: -0.031 | inactive: 0.019 | inactive: 0.037 | inactive: 0.029 | inactive: -0.008 | inactive: -0.035
11 | DLG3 isoform 2 (UniProt Q92796) | inactive: -0.136 | inactive: 0 | inactive: -0.026 | inactive: 0.053 | inactive: -0.01 | inactive: -0.089 | inactive: -0.082 | inactive: 0.069 | inactive: -0.055 | inactive: -0.131
12 | DHCR24 (UniProt Q15392) | inactive: -0.007 | inactive: 0.119 | inactive: -0.04 | inactive: -0.027 | inactive: 0.238 | inactive: 0.073 | inactive: 0.056 | inactive: -0.004 | inactive: -0.003 | inactive: 0.111
13 | DHODH (UniProt Q02127) | inactive: -0.023 | inactive: 0.033 | inactive: -0.002 | inactive: 0.022 | inactive: 0.026 | inactive: -0.022 | inactive: -0.039 | inactive: -0.016 | inactive: 0.011 | inactive: -0.027
14 | DMD (UniProt P11532) | inactive: 0.001 | inactive: 0 | inactive: -0.011 | inactive: 0.015 | inactive: 0.004 | inactive: 0.014 | inactive: -0.055 | inactive: -0.028 | inactive: 0.004 | inactive: -0.001
15 | DHX16 (UniProt O60231) | inactive: 0.014 | inactive: 0.008 | inactive: 0.002 | inactive: 0.009 | inactive: -0.013 | inactive: 0.017 | inactive: -0.032 | inactive: 0.015 | inactive: -0.039 | inactive: -0.002
16 | DGAT1 (UniProt O75907) | inactive: 0.044 | inactive: -0.101 | inactive: 0.057 | inactive: -0.033 | inactive: 0.102 | inactive: 0.011 | inactive: 0.08 | inactive: 0.206 | inactive: 0.011 | inactive: -0.007
17 | DNAAF2 (UniProt Q9NVR5) | inactive: -0.018 | inactive: 0.033 | inactive: 0.027 | inactive: -0.044 | inactive: 0.042 | inactive: 0.063 | inactive: -0.019 | inactive: -0.018 | inactive: 0.004 | inactive: 0.008
18 | DNAJB6 (UniProt O75190) | inactive: -0.015 | inactive: 0.007 | inactive: 0.04 | inactive: 0.009 | inactive: 0.023 | inactive: 0.069 | inactive: 0.015 | inactive: -0.034 | inactive: -0.01 | inactive: 0.051
19 | DHRS4 (UniProt Q9BTZ2) | inactive: 0.02 | inactive: 0.012 | inactive: 0.071 | inactive: 0.036 | inactive: -0.059 | inactive: 0.031 | inactive: -0.005 | inactive: 0.021 | inactive: 0 | inactive: 0.013
20 | DHPS (UniProt P49366) | inactive: -0.011 | inactive: 0.064 | inactive: 0.016 | inactive: -0.005 | inactive: -0.009 | inactive: -0.024 | inactive: -0.006 | inactive: -0.033 | inactive: 0 | inactive: -0.013
21 | DNAJB1 (UniProt P25685) | inactive: 0.018 | inactive: -0.075 | inactive: 0.021 | inactive: 0.058 | inactive: -0.037 | inactive: 0.069 | inactive: -0.103 | inactive: 0.022 | inactive: -0.046 | inactive: 0.006
22 | DNAH9 (UniProt Q9NYC9) | inactive: 0.026 | inactive: 0.009 | inactive: 0.037 | inactive: -0.116 | inactive: 0.041 | inactive: -0.003 | inactive: -0.026 | inactive: 0.043 | inactive: 0.018 | inactive: 0.007
23 | DOK3 (UniProt Q7L591) | inactive: -0.032 | inactive: 0.017 | inactive: -0.005 | inactive: -0.137 | inactive: 0.112 | inactive: -0.065 | inactive: 0.028 | inactive: -0.076 | inactive: -0.045 | inactive: 0.002
24 | DHX38 (UniProt Q92620) | inactive: 0.007 | inactive: 0.006 | inactive: 0.033 | inactive: 0.034 | inactive: 0.005 | inactive: 0 | inactive: 0.043 | inactive: 0.013 | inactive: -0.032 | inactive: -0.02
25 | DIABLO (UniProt Q9NR28) | inactive: -0.01 | inactive: 0.035 | inactive: -0.007 | inactive: -0.018 | inactive: 0.013 | inactive: 0.002 | inactive: -0.023 | inactive: 0.001 | inactive: 0.019 | inactive: -0.065
26 | DFFB (UniProt O76075) | inactive: -0.042 | inactive: -0.007 | inactive: -0.022 | inactive: -0.033 | inactive: -0.022 | inactive: -0.012 | inactive: 0.015 | inactive: -0.006 | inactive: 0.011 | active: 0.231
27 | DOK1 (UniProt Q99704) | inactive: -0.02 | inactive: -0.135 | inactive: 0.059 | inactive: 0.059 | inactive: -0.005 | inactive: -0.007 | inactive: 0.044 | inactive: 0.082 | inactive: 0.071 | inactive: -0.102
28 | DOCK7 (UniProt Q96N67) | inactive: 0.007 | inactive: -0.238 | inactive: 0.006 | inactive: -0.014 | inactive: -0.035 | inactive: 0.006 | inactive: 0.038 | inactive: 0.032 | inactive: 0.026 | inactive: 0.017
29 | DGKQ (UniProt P52824) | inactive: -0.018 | inactive: -0.184 | inactive: 0.069 | inactive: 0.018 | inactive: 0.073 | inactive: -0.19 | inactive: -0.075 | inactive: -0.09 | inactive: 0.038 | inactive: 0.15
30 | DLGAP4 (UniProt Q9Y2H0) | inactive: 0.003 | inactive: 0.001 | inactive: -0.011 | inactive: 0 | inactive: -0.045 | inactive: 0.03 | inactive: -0.025 | inactive: -0.042 | inactive: 0.02 | inactive: 0.029

A different layout for some results above:
Row,Target,log2 fold change (alvocidib),log2 fold change (Tubastatin A),log2 fold change [1],log2 fold change (defactinib),log2 fold change [2],log2 fold change (encorafenib),log2 fold change [3],log2 fold change (alisertib),log2 fold change [4],log2 fold change (gefitinib)
9,DLG1 isoform 2 (UniProt Q12959),inactive: 0.039,inactive: 0.035,inactive: -0.013,inactive: -0.026,inactive: -0.002,inactive: 0.008,inactive: 0.034,inactive: 0.045,inactive: 0.006,inactive: -0.015
10,DHCR7 (UniProt Q9UBM7),inactive: -0.008,inactive: -0.038,inactive: -0.008,inactive: 0.016,inactive: -0.031,inactive: 0.019,inactive: 0.037,inactive: 0.029,inactive: -0.008,inactive: -0.035
